According to the supplement of paper PMC10849652:
This is one part of the list.

Protein sequences, listed by entry. Tags and fused reporters are not part of them. Lines headed by an entry give the natural chain unless they say otherwise; changes in a name come on top.
UniProt Q9BUA3: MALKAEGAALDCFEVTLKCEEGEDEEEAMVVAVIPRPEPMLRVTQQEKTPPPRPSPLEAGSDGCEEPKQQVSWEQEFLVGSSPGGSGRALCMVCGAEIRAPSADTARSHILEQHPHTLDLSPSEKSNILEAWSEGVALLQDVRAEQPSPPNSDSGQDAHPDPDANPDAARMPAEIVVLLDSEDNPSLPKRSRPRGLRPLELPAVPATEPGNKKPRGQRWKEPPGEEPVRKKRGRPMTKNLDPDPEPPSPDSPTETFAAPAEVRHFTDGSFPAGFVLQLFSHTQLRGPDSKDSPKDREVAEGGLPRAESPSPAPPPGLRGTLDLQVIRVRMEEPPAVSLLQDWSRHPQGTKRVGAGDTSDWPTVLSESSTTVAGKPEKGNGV
UniProt O76094: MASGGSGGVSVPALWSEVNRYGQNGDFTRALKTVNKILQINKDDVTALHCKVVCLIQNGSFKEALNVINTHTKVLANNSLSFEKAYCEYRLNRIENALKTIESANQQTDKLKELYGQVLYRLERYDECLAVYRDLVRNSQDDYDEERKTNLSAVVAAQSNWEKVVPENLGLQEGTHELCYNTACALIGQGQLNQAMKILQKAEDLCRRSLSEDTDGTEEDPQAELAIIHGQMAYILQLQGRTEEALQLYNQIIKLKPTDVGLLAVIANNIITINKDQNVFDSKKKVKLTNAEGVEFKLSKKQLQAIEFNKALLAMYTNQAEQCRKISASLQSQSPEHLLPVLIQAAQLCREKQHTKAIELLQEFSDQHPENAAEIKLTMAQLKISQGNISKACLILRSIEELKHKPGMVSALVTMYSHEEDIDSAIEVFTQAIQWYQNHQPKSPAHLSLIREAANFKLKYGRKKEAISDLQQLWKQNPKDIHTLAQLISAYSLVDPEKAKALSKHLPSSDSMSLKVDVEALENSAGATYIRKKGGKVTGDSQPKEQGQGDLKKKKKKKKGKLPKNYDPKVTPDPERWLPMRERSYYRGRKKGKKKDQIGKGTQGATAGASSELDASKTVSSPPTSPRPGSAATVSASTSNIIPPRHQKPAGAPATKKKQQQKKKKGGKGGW
UniProt Q9Y5M8: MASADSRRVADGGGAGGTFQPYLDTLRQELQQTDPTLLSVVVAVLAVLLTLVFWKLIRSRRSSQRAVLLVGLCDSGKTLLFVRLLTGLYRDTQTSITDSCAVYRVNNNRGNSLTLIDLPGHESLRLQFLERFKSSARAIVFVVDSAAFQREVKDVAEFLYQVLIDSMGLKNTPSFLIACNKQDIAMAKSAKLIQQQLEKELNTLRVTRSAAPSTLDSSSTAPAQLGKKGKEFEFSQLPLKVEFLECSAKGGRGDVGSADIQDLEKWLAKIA
UniProt P42226: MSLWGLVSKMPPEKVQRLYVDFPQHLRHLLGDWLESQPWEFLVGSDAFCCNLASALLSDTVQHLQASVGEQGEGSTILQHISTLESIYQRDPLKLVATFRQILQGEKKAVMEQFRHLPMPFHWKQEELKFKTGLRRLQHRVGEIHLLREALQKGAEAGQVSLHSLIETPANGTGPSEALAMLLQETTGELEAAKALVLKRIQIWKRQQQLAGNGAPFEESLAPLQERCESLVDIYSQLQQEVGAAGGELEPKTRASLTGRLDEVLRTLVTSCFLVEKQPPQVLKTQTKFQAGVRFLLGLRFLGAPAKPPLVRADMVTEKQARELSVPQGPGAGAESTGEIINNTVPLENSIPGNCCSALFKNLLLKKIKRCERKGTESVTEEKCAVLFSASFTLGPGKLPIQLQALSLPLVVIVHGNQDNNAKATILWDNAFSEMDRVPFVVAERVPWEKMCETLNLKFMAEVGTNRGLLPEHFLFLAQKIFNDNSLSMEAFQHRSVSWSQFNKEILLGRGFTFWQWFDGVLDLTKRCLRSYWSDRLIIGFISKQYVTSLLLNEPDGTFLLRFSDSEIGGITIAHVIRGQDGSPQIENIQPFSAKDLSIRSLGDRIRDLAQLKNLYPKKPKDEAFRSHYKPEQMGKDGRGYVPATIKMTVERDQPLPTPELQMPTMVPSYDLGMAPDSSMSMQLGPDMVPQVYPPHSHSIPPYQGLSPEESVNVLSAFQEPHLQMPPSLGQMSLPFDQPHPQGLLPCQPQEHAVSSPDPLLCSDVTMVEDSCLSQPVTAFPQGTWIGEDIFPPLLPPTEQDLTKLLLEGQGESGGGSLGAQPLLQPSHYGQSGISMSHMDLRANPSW
UniProt P31948, whole entry, looked up: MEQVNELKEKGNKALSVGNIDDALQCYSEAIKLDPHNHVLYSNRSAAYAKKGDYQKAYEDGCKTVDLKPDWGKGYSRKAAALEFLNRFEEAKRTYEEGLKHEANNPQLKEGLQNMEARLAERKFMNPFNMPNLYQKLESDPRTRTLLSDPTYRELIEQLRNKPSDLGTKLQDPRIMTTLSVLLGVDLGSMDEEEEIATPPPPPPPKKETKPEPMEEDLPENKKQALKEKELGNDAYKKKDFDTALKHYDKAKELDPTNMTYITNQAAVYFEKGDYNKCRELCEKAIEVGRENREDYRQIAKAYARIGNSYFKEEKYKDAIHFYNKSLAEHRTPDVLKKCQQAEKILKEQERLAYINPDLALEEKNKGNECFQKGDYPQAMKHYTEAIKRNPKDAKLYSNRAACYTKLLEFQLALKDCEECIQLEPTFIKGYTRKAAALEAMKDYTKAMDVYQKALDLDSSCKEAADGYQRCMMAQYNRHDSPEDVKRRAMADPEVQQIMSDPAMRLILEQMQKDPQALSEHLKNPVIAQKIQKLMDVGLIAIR
UniProt Q9H2V7: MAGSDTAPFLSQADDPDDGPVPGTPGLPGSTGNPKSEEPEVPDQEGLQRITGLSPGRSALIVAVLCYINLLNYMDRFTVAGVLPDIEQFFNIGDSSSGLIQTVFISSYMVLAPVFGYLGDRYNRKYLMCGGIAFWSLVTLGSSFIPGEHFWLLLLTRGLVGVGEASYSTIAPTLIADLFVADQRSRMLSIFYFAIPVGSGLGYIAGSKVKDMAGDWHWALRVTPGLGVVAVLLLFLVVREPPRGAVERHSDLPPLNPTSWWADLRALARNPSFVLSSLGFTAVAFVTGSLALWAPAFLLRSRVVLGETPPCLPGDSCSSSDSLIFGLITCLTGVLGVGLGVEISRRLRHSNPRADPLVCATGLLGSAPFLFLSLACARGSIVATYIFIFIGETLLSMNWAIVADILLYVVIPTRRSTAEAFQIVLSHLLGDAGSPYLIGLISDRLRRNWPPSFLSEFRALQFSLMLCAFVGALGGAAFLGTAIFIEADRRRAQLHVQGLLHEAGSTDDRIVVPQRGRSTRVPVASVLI
UniProt O15020, whole entry, looked up: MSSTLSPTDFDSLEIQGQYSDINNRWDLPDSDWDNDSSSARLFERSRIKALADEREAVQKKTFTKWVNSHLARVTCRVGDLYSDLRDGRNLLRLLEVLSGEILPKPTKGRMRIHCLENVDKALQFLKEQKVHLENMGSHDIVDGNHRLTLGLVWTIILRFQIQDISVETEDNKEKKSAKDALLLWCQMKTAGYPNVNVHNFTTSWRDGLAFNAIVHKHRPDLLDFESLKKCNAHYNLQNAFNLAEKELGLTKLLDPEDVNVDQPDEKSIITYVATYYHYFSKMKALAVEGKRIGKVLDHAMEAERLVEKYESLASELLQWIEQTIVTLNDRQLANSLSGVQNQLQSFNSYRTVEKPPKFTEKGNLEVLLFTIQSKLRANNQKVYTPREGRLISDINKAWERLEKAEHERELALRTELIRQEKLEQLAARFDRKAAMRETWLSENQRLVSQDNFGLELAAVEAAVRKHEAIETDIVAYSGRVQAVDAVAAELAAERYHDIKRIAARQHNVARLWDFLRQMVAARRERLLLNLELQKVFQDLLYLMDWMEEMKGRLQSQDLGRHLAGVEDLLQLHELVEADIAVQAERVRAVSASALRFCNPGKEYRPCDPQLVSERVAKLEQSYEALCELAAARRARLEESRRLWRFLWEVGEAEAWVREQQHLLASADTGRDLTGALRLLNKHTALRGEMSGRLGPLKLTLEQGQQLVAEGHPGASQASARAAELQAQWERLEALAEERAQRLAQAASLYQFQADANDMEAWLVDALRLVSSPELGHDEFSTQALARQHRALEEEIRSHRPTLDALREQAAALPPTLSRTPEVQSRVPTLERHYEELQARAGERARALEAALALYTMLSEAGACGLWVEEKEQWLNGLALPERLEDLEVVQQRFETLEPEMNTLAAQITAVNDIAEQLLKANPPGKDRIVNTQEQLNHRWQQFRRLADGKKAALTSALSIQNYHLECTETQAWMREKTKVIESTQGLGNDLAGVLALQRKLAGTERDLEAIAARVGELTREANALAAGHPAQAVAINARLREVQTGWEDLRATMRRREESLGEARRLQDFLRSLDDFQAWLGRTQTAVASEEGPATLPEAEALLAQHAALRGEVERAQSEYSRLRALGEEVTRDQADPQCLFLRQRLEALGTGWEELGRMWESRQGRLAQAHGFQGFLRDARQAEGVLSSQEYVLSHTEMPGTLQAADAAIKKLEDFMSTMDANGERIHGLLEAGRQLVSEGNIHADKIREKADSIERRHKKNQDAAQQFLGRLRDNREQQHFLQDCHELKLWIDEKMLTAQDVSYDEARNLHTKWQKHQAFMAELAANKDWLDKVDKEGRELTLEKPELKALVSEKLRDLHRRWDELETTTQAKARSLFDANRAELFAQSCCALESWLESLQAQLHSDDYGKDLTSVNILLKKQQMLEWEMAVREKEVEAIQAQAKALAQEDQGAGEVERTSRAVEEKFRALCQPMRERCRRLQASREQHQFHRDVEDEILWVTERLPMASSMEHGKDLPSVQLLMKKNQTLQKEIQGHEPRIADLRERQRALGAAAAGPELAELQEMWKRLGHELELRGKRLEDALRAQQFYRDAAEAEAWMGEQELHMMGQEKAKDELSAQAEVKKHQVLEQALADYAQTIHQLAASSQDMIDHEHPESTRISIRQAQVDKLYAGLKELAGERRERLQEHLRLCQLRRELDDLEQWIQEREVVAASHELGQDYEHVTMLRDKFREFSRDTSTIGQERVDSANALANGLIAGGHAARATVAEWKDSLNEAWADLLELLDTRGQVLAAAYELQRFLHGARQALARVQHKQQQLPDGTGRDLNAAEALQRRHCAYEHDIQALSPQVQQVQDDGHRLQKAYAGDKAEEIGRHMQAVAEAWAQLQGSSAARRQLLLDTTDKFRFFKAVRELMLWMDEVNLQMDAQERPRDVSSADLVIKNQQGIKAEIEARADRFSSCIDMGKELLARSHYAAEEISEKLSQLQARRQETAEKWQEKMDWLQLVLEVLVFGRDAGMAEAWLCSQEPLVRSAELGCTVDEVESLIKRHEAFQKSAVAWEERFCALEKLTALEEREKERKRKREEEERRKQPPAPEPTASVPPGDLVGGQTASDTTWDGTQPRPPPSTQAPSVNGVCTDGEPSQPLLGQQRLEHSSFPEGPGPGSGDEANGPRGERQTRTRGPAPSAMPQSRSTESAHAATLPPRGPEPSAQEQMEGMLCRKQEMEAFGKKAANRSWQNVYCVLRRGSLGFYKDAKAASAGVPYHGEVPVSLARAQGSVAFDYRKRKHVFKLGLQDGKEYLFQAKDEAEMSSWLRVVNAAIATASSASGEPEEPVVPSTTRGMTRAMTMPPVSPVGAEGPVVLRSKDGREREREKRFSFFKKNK
UniProt Q08945, whole entry, looked up: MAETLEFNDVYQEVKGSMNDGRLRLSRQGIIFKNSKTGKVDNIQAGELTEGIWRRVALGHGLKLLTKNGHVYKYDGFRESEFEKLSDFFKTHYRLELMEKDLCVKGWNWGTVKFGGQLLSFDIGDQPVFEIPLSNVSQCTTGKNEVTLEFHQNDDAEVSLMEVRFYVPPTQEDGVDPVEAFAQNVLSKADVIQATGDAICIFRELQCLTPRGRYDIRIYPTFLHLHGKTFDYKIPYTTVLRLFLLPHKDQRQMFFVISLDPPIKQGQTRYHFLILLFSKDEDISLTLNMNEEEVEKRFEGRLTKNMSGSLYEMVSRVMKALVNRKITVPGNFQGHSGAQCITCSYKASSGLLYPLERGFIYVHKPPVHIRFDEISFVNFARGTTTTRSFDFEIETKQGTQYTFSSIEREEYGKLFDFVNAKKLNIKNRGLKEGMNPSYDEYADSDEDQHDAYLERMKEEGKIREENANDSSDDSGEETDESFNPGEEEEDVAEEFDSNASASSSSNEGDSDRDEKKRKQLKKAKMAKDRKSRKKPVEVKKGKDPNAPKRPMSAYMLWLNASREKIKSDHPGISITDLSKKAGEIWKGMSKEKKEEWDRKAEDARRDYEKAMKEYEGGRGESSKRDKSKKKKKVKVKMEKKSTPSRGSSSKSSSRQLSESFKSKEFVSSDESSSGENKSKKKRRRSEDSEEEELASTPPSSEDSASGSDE
UniProt Q5W111: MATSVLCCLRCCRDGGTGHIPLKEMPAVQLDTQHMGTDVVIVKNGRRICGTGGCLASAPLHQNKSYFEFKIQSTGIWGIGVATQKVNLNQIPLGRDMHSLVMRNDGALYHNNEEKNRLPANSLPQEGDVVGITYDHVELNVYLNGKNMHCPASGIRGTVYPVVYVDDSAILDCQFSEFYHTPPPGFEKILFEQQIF

How the values were obtained:
Assay in all cases: log2 fold change, soluble protein after heating vs DMSO (PISA); higher = thermal stabilisation; K562 cells, 10 uM, 30 min; active = over 0.2 and 3.5 SD of the protein, either way, in both replicates (recomputed)
[1] = compound: NC(=O)Nc1cc(-c2cccc(F)c2)sc1C(=O)N[C@H]1CCCNC1
Summary of the method: (§1)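 Quantification of soluble protein used TMTpro 16plex LC-MS/MS, with channel sums equalised. Samples were the supernatant after 21,000xg for 90 min of pooled aliquots from K562 cells (2×10^6 cells/mL) treated with 10 μM compound for 30 min, heated for 3 min over 48°C-58°C, and extracted in PBS with 0.5% NP-40 at 4°C. Values, from duplicates, describe thermal stability against control samples on a log2 fold-change scale.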

[2] = compound: NC(=O)c1cnc(N[C@@H]2CCCC[C@@H]2N)nc1Nc1cccc(-n2nccn2)c1
Summary of the method: as §1

[3] = compound: NC1(c2ccc(-c3nc4ccn5c(=O)[nH]nc5c4cc3-c3ccccc3)cc2)CCC1
Summary of the method: as §1

[4] = compound: NCC(=O)Nc1ccc(-n2nc(C(F)(F)F)cc2-c2ccc3c(ccc4ccccc43)c2)cc1
Summary of the method: as §1

[5] = compound: Nc1ccccc1NC(=O)c1ccc(CNC(=O)OCc2cccnc2)cc1 [entinostat]
Summary of the method: as §1

[6] = compound: O=C(CCCCCCC(=O)Nc1ccccc1)NO [vorinostat]
Summary of the method: as §1

[7] = compound: O=C(CCCCCCNC(=O)c1cnc(N(c2ccccc2)c2ccccc2Cl)nc1)NO [citarinostat]
Summary of the method: as §1

[8] = compound: O=C(O)c1ccc2c(c1)nc(Nc1cccc(Cl)c1)c1ccncc12 [silmitasertib]
Summary of the method: as §1

[9] = compound: O=C1NC(=O)C(c2cnc3ccccn23)=C1c1cn2c3c(cc(F)cc13)CN(C(=O)N1CCCCC1)CC2
Summary of the method: as §1

[10] = compound: c1cc(OCCN2CCCCC2)cc(-c2n[nH]c3ccc(-c4nnc[nH]4)cc23)c1
Summary of the method: as §1

[11] = compound: c1cn2cc(-c3ccc4cn[nH]c4c3)nc(Nc3ccc(N4CCOCC4)cc3)c2n1 [entospletinib]
Summary of the method: as §1

| Target | log2 fold change [1] | log2 fold change [2] | log2 fold change [3] | log2 fold change [4] | log2 fold change [5] | log2 fold change [6] | log2 fold change [7] | log2 fold change [8] | log2 fold change [9] | log2 fold change [10] | log2 fold change [11] |
| --- | --- | --- | --- | --- | --- | --- | --- | --- | --- | --- | --- |
| SREK1 isoform 2 (UniProt Q8WXA9) | inactive: 0.194 | inactive: -0.068 | inactive: 0.03 | inactive: -0.208 | inactive: 0.012 | inactive: 0.05 | inactive: 0.129 | inactive: -0.148 | inactive: 0.059 | inactive: -0.213 | – |
| SRPRA (UniProt P08240) | inactive: -0.03 | inactive: 0.017 | inactive: -0.049 | inactive: -0.045 | inactive: 0.02 | inactive: 0.033 | inactive: 0 | inactive: 0.021 | inactive: 0.008 | inactive: 0.015 | – |
| SRI (UniProt P30626) | inactive: -0.014 | inactive: 0.081 | inactive: -0.04 | inactive: 0 | inactive: 0.058 | inactive: -0.044 | inactive: 0.027 | inactive: -0.004 | inactive: -0.045 | inactive: -0.038 | – |
| SPINDOC (UniProt Q9BUA3) | inactive: 0.09 | inactive: 0.003 | inactive: 0.014 | inactive: -0.061 | inactive: -0.188 | inactive: -0.014 | inactive: -0.106 | inactive: -0.061 | inactive: -0.102 | inactive: 0.053 | – |
| STIM1 (UniProt Q13586) | inactive: -0.032 | inactive: -0.074 | inactive: -0.075 | inactive: -0.117 | inactive: 0.011 | inactive: 0.022 | inactive: -0.013 | inactive: 0.007 | inactive: -0.054 | inactive: -0.04 | – |
| SRP72 (UniProt O76094) | inactive: -0.088 | inactive: -0.054 | inactive: -0.082 | inactive: -0.128 | inactive: 0.069 | inactive: 0.103 | inactive: 0.095 | inactive: 0.042 | inactive: 0.105 | inactive: -0.129 | – |
| SRPRB (UniProt Q9Y5M8) | inactive: 0.048 | inactive: 0.028 | inactive: -0.056 | inactive: -0.038 | inactive: 0.045 | inactive: 0.029 | inactive: 0.029 | inactive: -0.007 | inactive: -0.014 | inactive: 0.045 | – |
| SRP68 (UniProt Q9UHB9) | inactive: -0.068 | inactive: -0.08 | inactive: -0.094 | inactive: -0.035 | inactive: 0.101 | inactive: 0.08 | inactive: 0.095 | inactive: 0.08 | inactive: 0.096 | inactive: -0.062 | – |
| STK26 (UniProt Q9P289) | inactive: 0.07 | inactive: -0.005 | inactive: -0.111 | inactive: -0.057 | inactive: -0.063 | inactive: 0.034 | inactive: 0.092 | inactive: 0.069 | inactive: -0.017 | inactive: -0.007 | – |
| STAT6 (UniProt P42226) | inactive: -0.07 | inactive: -0.065 | inactive: -0.041 | inactive: -0.268 | inactive: 0.044 | inactive: 0.108 | inactive: 0.061 | inactive: 0.041 | inactive: -0.047 | inactive: 0.03 | – |
| SRSF7 (UniProt Q16629) | inactive: 0 | inactive: 0.13 | inactive: 0.525 | inactive: 0.027 | inactive: -0.079 | inactive: 0 | inactive: -0.132 | inactive: -0.144 | inactive: 0.357 | inactive: -0.33 | – |
| STARD7 (UniProt Q9NQZ5) | inactive: -0.048 | inactive: -0.113 | inactive: -0.088 | inactive: 0.012 | inactive: 0.008 | inactive: 0.114 | inactive: 0.073 | inactive: -0.011 | active: 0.341 | inactive: -0.089 | – |
| SPARC (UniProt P09486) | inactive: -0.124 | inactive: -0.143 | inactive: -0.042 | inactive: 0.075 | inactive: -0.131 | inactive: 0.05 | inactive: -0.013 | inactive: 0.076 | inactive: 0.027 | inactive: 0 | inactive: 0.005 |
| STIP1 isoform 2 (UniProt P31948) | inactive: 0.05 | inactive: -0.027 | inactive: -0.02 | inactive: -0.02 | inactive: 0.026 | inactive: -0.011 | inactive: 0.037 | inactive: -0.021 | inactive: -0.037 | inactive: -0.005 | inactive: -0.014 |
| SRGAP2 (UniProt O75044) | inactive: 0.038 | inactive: -0.028 | inactive: -0.006 | inactive: -0.026 | inactive: 0.049 | inactive: -0.043 | inactive: 0.013 | inactive: 0.051 | inactive: 0.02 | inactive: -0.034 | inactive: 0.06 |
| SPIN1 (UniProt Q9Y657) | inactive: -0.097 | inactive: -0.031 | inactive: 0 | inactive: -0.05 | inactive: -0.173 | inactive: -0.12 | inactive: -0.126 | inactive: 0.055 | inactive: -0.047 | inactive: 0.03 | inactive: 0.084 |
| SPHK1 isoform 2 (UniProt Q9NYA1) | inactive: -0.028 | inactive: 0.031 | inactive: -0.023 | inactive: 0.032 | inactive: -0.034 | inactive: 0.008 | inactive: -0.006 | inactive: -0.029 | inactive: -0.026 | inactive: -0.017 | inactive: -0.178 |
| SPNS1 (UniProt Q9H2V7) | inactive: 0.012 | inactive: -0.031 | inactive: -0.05 | inactive: -0.033 | inactive: 0.026 | inactive: -0.142 | inactive: -0.046 | inactive: 0.039 | inactive: 0.101 | inactive: 0.029 | inactive: -0.033 |
| SRXN1 (UniProt Q9BYN0) | inactive: -0.013 | inactive: -0.364 | inactive: -0.024 | inactive: -0.021 | inactive: -0.053 | inactive: -0.24 | inactive: -0.039 | inactive: -0.059 | inactive: -0.111 | inactive: 0.09 | – |
| SPTBN2 (UniProt O15020) | inactive: -0.088 | inactive: -0.068 | inactive: -0.096 | inactive: 0.044 | inactive: 0.123 | inactive: -0.014 | inactive: -0.055 | inactive: 0.167 | inactive: 0.062 | inactive: -0.075 | inactive: 0.021 |
| SRP19 (UniProt P09132) | inactive: -0.037 | inactive: 0.007 | inactive: -0.048 | inactive: -0.025 | inactive: 0.008 | inactive: 0.027 | inactive: -0.011 | inactive: 0.098 | inactive: -0.039 | inactive: -0.018 | inactive: -0.051 |
| SRRT (UniProt Q9BXP5) | inactive: -0.052 | inactive: -0.086 | inactive: -0.218 | inactive: -0.124 | inactive: 0.187 | inactive: 0.171 | inactive: 0.137 | inactive: -0.097 | inactive: -0.073 | inactive: 0.016 | inactive: -0.037 |
| SRSF1 (UniProt Q07955) | inactive: 0 | inactive: 0.12 | inactive: 0.371 | inactive: 0.067 | inactive: -0.065 | inactive: -0.065 | inactive: -0.094 | inactive: -0.004 | inactive: 0.243 | inactive: -0.233 | inactive: 0.16 |
| SRSF11 (UniProt Q05519) | inactive: -0.183 | inactive: -0.032 | inactive: -0.063 | inactive: -0.074 | inactive: 0.018 | inactive: 0.06 | inactive: 0.046 | inactive: -0.099 | inactive: 0.037 | inactive: -0.038 | – |
| SSRP1 (UniProt Q08945) | inactive: -0.017 | inactive: -0.012 | inactive: -0.078 | inactive: 0.003 | inactive: 0.007 | inactive: 0.059 | inactive: 0.155 | inactive: 0.007 | inactive: -0.171 | inactive: -0.013 | – |
| STK11IP (UniProt Q8N1F8) | inactive: 0.098 | inactive: -0.412 | inactive: -0.285 | inactive: 0.086 | inactive: 0.046 | inactive: -0.184 | inactive: -0.032 | inactive: 0.217 | inactive: 0.095 | inactive: 0.016 | – |
| SPRYD7 (UniProt Q5W111) | inactive: -0.045 | inactive: -0.064 | inactive: -0.041 | inactive: 0.024 | inactive: 0.028 | inactive: -0.16 | inactive: 0.048 | inactive: 0.023 | inactive: -0.012 | inactive: 0.039 | inactive: -0.11 |
| STARD3NL (UniProt O95772) | inactive: 0.018 | inactive: -0.104 | active: -0.413 | inactive: -0.031 | inactive: 0.093 | inactive: 0.037 | inactive: 0.004 | inactive: 0.044 | inactive: -0.013 | inactive: 0.035 | – |
| SSX2 (UniProt Q16385) | inactive: -0.049 | inactive: -0.094 | inactive: -0.02 | inactive: -0.057 | inactive: -0.054 | inactive: -0.022 | inactive: -0.025 | inactive: 0.011 | inactive: -0.098 | inactive: 0.033 | – |

For convenience, part of the list above:

| Target | log2 fold change [1] | log2 fold change [2] | log2 fold change [3] | log2 fold change [4] | log2 fold change [5] | log2 fold change [6] | log2 fold change [7] | log2 fold change [8] | log2 fold change [9] | log2 fold change [10] | log2 fold change [11] |
| --- | --- | --- | --- | --- | --- | --- | --- | --- | --- | --- | --- |
| SRXN1 (UniProt Q9BYN0) | inactive: -0.013 | inactive: -0.364 | inactive: -0.024 | inactive: -0.021 | inactive: -0.053 | inactive: -0.24 | inactive: -0.039 | inactive: -0.059 | inactive: -0.111 | inactive: 0.09 | – |
| SPTBN2 (UniProt O15020) | inactive: -0.088 | inactive: -0.068 | inactive: -0.096 | inactive: 0.044 | inactive: 0.123 | inactive: -0.014 | inactive: -0.055 | inactive: 0.167 | inactive: 0.062 | inactive: -0.075 | inactive: 0.021 |
